Results deposited as PubChem BioAssay AID1224826 (NIAID, 2016).
Here is an unselected part of about 17,000 reagents tested. About 1,110 of them (6.6%) count as active. 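Active means lowered or raised reporter signal; replicate intensities are raw and not normalised per plate.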 A number with no mark means an inactive call.

Purpose: 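Genes that change LPS-induced Tnf promoter activity in mouse macrophages when knocked down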 (primary screen)
System: RAW264.7 G9 macrophages from mouse bearing reporters for p65 (GFP) and the Tnf promoter (mCherry)
Reagent: siRNA pool against mouse genes, 100 nM
Timing: 16 h of LPS stimulation, after 2 days of siRNA transfection
Challenge: bacterial lipopolysaccharide (Salmonella minnesota R595), 10 ng/ml
Measured: 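Imaged Tnf reporter mCherry in nuclei, minus background, normalised per plate to the median and expressed as robust z-scores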
Reading the numbers: Tnf reporter robust z-score: higher = stronger Tnf promoter reporter signal after LPS; Tnf reporter intensity: higher = stronger Tnf promoter reporter signal
Call rule: 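Called active when robust z-score is at most -1.3, matching the median of the Tlr4 knock-down control, or over 3; control wells and wells with under 50 cells never active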
Meaning of the calls: active = Tnf reporter clearly lowered or raised; inactive = no clear change in Tnf reporter

| Gene | Tnf reporter robust z-score | fewer than 50 cells in well | Tnf reporter intensity, replicate 1 | Tnf reporter intensity, replicate 2 |
| --- | --- | --- | --- | --- |
| Rtbdn | 0.98 | enough cells in well | 247 | 308 |
| Tnip1 | 0.07 | enough cells in well | 250 | 130 |
| Nmral1 | -0.34 | enough cells in well | 219 | 71.6 |
| Pde2a | 0.04 | enough cells in well | 243 | 185 |
| Aspa | 0.15 | enough cells in well | 130 | 200 |
| Dnai3 | – | fewer than 50 cells per well; well left out of calls | 223 | 55 |
| Cd55b | 1.75 | enough cells in well | 218 | 321 |
| Sox7 | 1.14 | enough cells in well | 174 | 105 |
| Pitpnm3 | -0.69 | enough cells in well | 123 | 145 |
| Nmt1 | -0.08 | enough cells in well | 188 | 142 |
| Rps10 | – | fewer than 50 cells per well; well left out of calls | 83.7 | 50.5 |
| Rab33b | 0.14 | enough cells in well | 334 | 208 |
| Card6 | -1.42 (active) | enough cells in well | 69.2 | 93.1 |

Entries listed above with an active call:
| Gene | Tnf reporter robust z-score | fewer than 50 cells in well | Tnf reporter intensity, replicate 1 | Tnf reporter intensity, replicate 2 |
| --- | --- | --- | --- | --- |
| Card6 | -1.42 (active) | enough cells in well | 69.2 | 93.1 |

The listing continues.
| Gene | Tnf reporter robust z-score | fewer than 50 cells in well | Tnf reporter intensity, replicate 1 | Tnf reporter intensity, replicate 2 |
| --- | --- | --- | --- | --- |
| Baz2a | -0.11 | enough cells in well | 141 | 266 |
| Cenpp | 2.24 | enough cells in well | 369 | 204 |
| Crls1 | 2.59 | enough cells in well | 411 | 166 |
| Nectin2 | 0.95 | enough cells in well | 417 | 265 |
| Msra | 0.33 | enough cells in well | 290 | 231 |
| Or13c25 | 0 | enough cells in well | 185 | 164 |
| Gdpd4 | 0.1 | enough cells in well | 147 | 83.6 |
| Gpatch3 | 0.27 | enough cells in well | 253 | 137 |
| Foxc2 | -0.33 | enough cells in well | 219 | 218 |
| Glra3 | 0.11 | enough cells in well | 266 | 178 |
| Tes | – | fewer than 50 cells per well; well left out of calls | 80.5 | 54.9 |
